Test results as given in publication PMC12655529, “Serendipitous Hinge Modulation Hypothetically Reprograms Caerin 1.1-LC Antibacterial Mechanism and Gram-Negative Selectivity” (Pharmaceutics, 2025).
Square brackets hold non-standard residues; d marks the D form. Ends that are not written are not given here. Peptide text beside a SMILES is read from it.

Experiments:
Gram-positive bacteria = assay: Geometric mean MIC and therapeutic index, Gram-positive; assay type: cell-based; conditions: therapeutic index, calculated as HC10/GM MIC
Gram-negative bacteria = assay: Geometric mean MIC and therapeutic index, Gram-negative; assay type: cell-based; conditions: therapeutic index, calculated as HC10/GM MIC

Row | Molecule | TI Gram-Positive (Gram-positive bacteria) | TI Gram-Negative (Gram-negative bacteria)
1 | CC[C@H](C)[C@H](NC(=O)[C@H](CCCCN)NC(=O)[C@@H]1CCCN1C(=O)[C@@H](CC(C)C)NC(=O)[C@H](C)NC(=O)[C@H](CCCCN)NC(=O)[C@@H]1CCCN1C(=O)[C@@H](NC(=O)[C@@H](NC(=O)[C@H](CC(C)C)NC(=O)[C@H](CCCCN)NC(=O)[C@H](CC(C)C)NC(=O)[C@H](CO)NC(=O)CNC(=O)[C@H](CC(C)C)NC(=O)[C@@H](NC(=O)[C@H](CO)NC(=O)[C@H](CC(C)C)NC(=O)[C@H](CC(C)C)NC(=O)CN)C(C)C)[C@@H](C)CC)C(C)C)C(=O)N[C@@H](C)C(=O)N[C@@H](CCC(=O)O)C(=O)N[C@@H](CCCCN)C(=O)N[C@@H](CC(C)C)C(N)=O [Caerin 1.1-LC PKAL(D)P] (H-GLLSVLGSLKLIVPKA[dL]PKIAEKL-NH2; N-terminus assumed) | 0.68 | 8.91
2 | GLLSVLGSLKLIVPHIIPLIAEKL-NH2 [Caerin 1.1-LC PHIIP] | 0.3 | 0.15
